{"source": "paper PMC10145367", "about": "“Acute and Transgenerational Effects of Non-Steroidal Anti-Inflammatory Drugs on Daphnia magna” (Toxics, 2023)", "test_system": "Daphnia magna", "experiment": "Acute toxicity (immobilization) of neonates, 24 h toxicity curves", "conditions": "24 h toxicity curve, 4PL model", "data": [{"smiles": "CC(C)Cc1ccc(C(C)C(=O)O)cc1", "note": "(centres unmarked) [Ibuprofen]", "values": [{"measurement": "Hill Slope", "value": 6.341}]}, {"smiles": "COc1ccc2c(c1)c(CC(=O)O)c(C)n2C(=O)c1ccc(Cl)cc1", "note": "[Indomethacin]", "values": [{"measurement": "Hill Slope", "value": 4.731}]}]}
